Test results reported in PubChem BioAssay AID504467 (National Center for Advancing Translational Sciences (NCATS), 2011).
The campaign covered roughly 330,000 compounds. About 7,700 (2.3%) were called active. Inconclusive results, whose numbers are uncertain, are shown with a selection of clear calls. Calls follow the shape of the dose curve; as a rule, active = well fitted inhibition curve with a large enough effect; inconclusive = small, poorly fitted or top-dose-only effect, or effect the other way; inactive = flat fitted curve, though single readings scatter. A potency beside an inconclusive call is a rough fit, not a confirmed value.

Assay: qHTS screen for small molecules that inhibit ELG1-dependent DNA repair in human embryonic kidney (HEK293T) cells expressing luciferase-tagged ELG1; also: nearly all actives have a fitted effect of over 55% in size
Settings: HEK293T ELG1-luciferase reporter, luminescence, 16 h, DNA damage induced by 5-fluorouridine; activity change, negative = inhibition: at 46.1 µM (top of the series)
Method in brief: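 DMSO vehicle served as the neutral condition. Each well held 2,000 cells given 5-fluorouridine plus compound; after 16 hr at 37 °C/5% CO2, ONE-Glo was added and luciferase measured 30 min later.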
% is scaled to controls: 0 for no effect and ±100 for the full control effect; potency is read from the fitted curve at half-maximal effect.

| SMILES | Potency | activity change, negative = inhibition |
| --- | --- | --- |
| Cc1ccccc1C(C(=O)NCc1ccco1)N(CC1CCCO1)C(=O)Cn1nnc2ccccc21 (centres undefined) | inconclusive: 3.66 µM [inhibitor, partial curve, poor fit] | – |
| CCC1C(=O)n2nc(-c3ccccc3)cc2N=C1C (centres undefined) | inconclusive: 11.6 µM [activator, partial curve] | – |
| CC(=O)c1ccc(NC(=O)CN2CCN(S(=O)(=O)c3ccc4ccccc4c3)CC2)cc1 | inconclusive: 23.1 µM [inhibitor, single point] | – |
| CCOc1cc(C(=O)N2CCCN(C)CC2)cc(OCC)c1OCC | – | inactive: -3.63% |
| O=C(Nc1cccc2cccnc12)c1cccnc1 | – | inactive: 19.6% |
| Cc1ccc(C(=O)Oc2ccccc2N2C(=O)C3CCCCC3C2=O)cc1 (centres undefined) | – | inactive: 13.3% |
| Cc1c(C(=O)Nc2ccccc2)cn2c(nc3ccccc32)c1C#N | – | inactive: 3.67% |
| O=c1[nH]c(SCc2cccc(Cl)c2)nc2c1CCCC2 | inconclusive: 13 µM [activator, partial curve, poor fit] | – |
| Cn1cccc1/C=C1\SC(=Nc2cccc(O)c2)NC1=O | inconclusive: 7.3 µM [activator, partial curve] | – |
| Cc1noc(C)c1COc1ccc(C(=O)NCCOc2ccccc2)cc1 | inconclusive: 1.46 µM [activator, full curve, poor fit] | – |
| CN(C(=O)COC(=O)CCC(=O)c1ccc(Cl)cc1)c1c(N)n(Cc2ccccc2)c(=O)[nH]c1=O | – | inactive: -21.6% |
| CCc1nc(N2CCN(C(=O)c3ccco3)CC2)c2c3c(sc2n1)CCCC3 | inconclusive: 29.1 µM [inhibitor, single point] | – |
| Cc1nn(-c2ccc(C(=O)N3CCN(S(=O)(=O)c4ccccc4C(F)(F)F)CC3)cc2)c(C)c1Cl | active: 3.26 µM | – |
| CCC(C)(C)NC(=O)CN(CC1CCCO1)C(=O)CNS(=O)(=O)c1ccccc1 (centres undefined) | – | inactive: 0% |
| CC(C)n1c(=NC(=O)c2ccco2)c(C#N)cc2c(=O)n3ccccc3cc21 | – | inactive: -10.3% |
| Cc1nc2ccc(NC(=O)c3ccc4ccccc4n3)cc2s1 | inconclusive: 16.4 µM [activator, partial curve] | – |
| CCCCc1cc(=O)oc2cc(C)cc(OCC(=O)Nc3ccccn3)c12 | inconclusive: 20.6 µM [activator, partial curve] | – |
| CC(C)NC(=O)COc1coc(CN2CCN(C(=O)c3ccco3)CC2)cc1=O | – | inactive: 14.4% |
| Cc1cccc2cc(CN(Cc3ccccc3)C(=S)NCCCN(C)C)c(=O)[nH]c12 | – | inactive: -0.806% |
| COc1cc(C(=O)N(C)Cc2cccc(OC)c2OC)ccc1OCC(=O)Nc1cccc(C(F)(F)F)c1 | inconclusive: 23.1 µM [inhibitor, partial curve, poor fit] | – |
| CCN(C[C@H]1N[C@@](CC)(C(=O)OC)[C@H]2C(=O)N(Cc3ccccc3)C(=O)[C@@H]12)C(=O)c1ccc(C(C)(C)C)cc1 | active: 3.66 µM | – |
| COc1ccc(F)cc1C(=O)C1CCCN(Cc2ccc3c(c2)OCCO3)C1 (centres undefined) | inconclusive: 18.3 µM [inhibitor, single point] | – |
| O=C(OCC(=O)N1CCc2ccccc21)c1ccccc1[N+](=O)[O-] | inconclusive: 0.82 µM [activator, partial curve, poor fit] | – |

| SMILES | Potency | activity change, negative = inhibition |
| --- | --- | --- |
| O=C(CSc1nnc(-c2ccc3c(c2)OCO3)o1)Nc1c(F)cccc1F | inconclusive: 20.6 µM [activator, partial curve] | – |
| O=C(O)C(=O)/C(=C\c1ccc(Cl)cc1)c1ccc2ccccc2n1 | inconclusive: 8.2 µM [activator, partial curve] | – |
| COc1ccc(NC(C)=O)cc1S(=O)(=O)Nc1ccc(C(=O)N2CCCC2)cc1 | – | inactive: 3.33% |
| CCC(=O)N1c2ccc(S(=O)(=O)NCCc3ccccc3)cc2CC1C (centres undefined) | – | inactive: -8.99% |
| O=C(CCCN1C(=O)/C(=C/c2cccs2)SC1=S)Nc1ccc(C(=O)O)cc1 | – | inactive: 17.5% |
| Cc1ccc(-n2ncc3c2CC(C)(C)CC3NC(=O)c2ccccn2)cc1 (centres undefined) | inconclusive: 7.3 µM [activator, partial curve, poor fit] | – |
| CCOC(=O)c1c(NC(=O)CSc2nc3cc(Cl)ccc3s2)sc(C(C)=O)c1C | – | inactive: -8.65% |
| COc1ccccc1NC(=O)CNC(=O)c1ccccc1C | inconclusive: 0.058 µM [activator, partial curve, poor fit] | – |
| O=C(/C=C1\NC2(CCCC2)Cc2ccccc21)N1CCOCC1 | – | inactive: -15.3% |
| Cc1ccc(-n2c(Cc3cccs3)nnc2SCC(=O)Nc2ccc(F)c(F)c2)cc1 | – | inactive: -17.7% |
| NC(=O)C1CCN(C(=O)c2cc(Cl)c3c(c2)OCCO3)CC1 | inconclusive: 32.6 µM [activator, partial curve, poor fit] | – |
| COc1cccc(/C=C/C(=O)NNC(=O)c2ccccc2)c1OC | inconclusive: 14.6 µM [activator, partial curve] | – |
| Cc1cc(C)c(S(C)(=O)=O)c(NN)n1 | inconclusive: 1.16 µM [inhibitor, single point] | – |
| CCOC(=O)CN(C(=O)CN1CCC(n2nnc3cc(C)ccc32)CC1)c1ccccc1 | inconclusive: 20.6 µM [inhibitor, partial curve] | – |
| COCCNc1nc(SCC(=O)N2CCN(c3ccccc3OC)CC2)nc2ccccc12 | inconclusive: 16.4 µM [inhibitor, single point] | – |
| O=C1c2ccccc2C(Nc2ccc(S(=O)(=O)N3CCCCCC3)cc2)N1Cc1ccco1 (centres undefined) | inconclusive: 29.1 µM [inhibitor, single point] | – |
| c1ccc2cc(C3CCCCC3)ncc2c1 | inconclusive: 20.6 µM [activator, partial curve] | – |
| CCOc1ccccc1CNC(=O)CCNS(=O)(=O)c1ccc2[nH]c(=O)oc2c1 | – | inactive: 11.2% |
| Cc1cccc(NC(=O)c2cnccn2)c1 | – | inactive: 14.5% |
| Cc1ccc(S(=O)(=O)Nc2cccc(/C=C/C(=O)O)c2)cc1 | inconclusive: 23.1 µM [activator, single point] | – |
| Nc1ncnc2c1ncn2[C@@H]1O[C@H](CNCC#Cc2ccccc2)[C@@H](O)[C@H]1O | inconclusive: 20.6 µM [activator, partial curve, poor fit] | – |
| COc1ccc(-n2nc(C(=O)NCC(=O)NCC3COc4ccccc4O3)c3ccccc3c2=O)c(OC)c1 (centres undefined) | – | inactive: -16% |
| O=S(=O)(N/N=C\c1cccc(F)c1)c1ccccc1 | inconclusive: 18.3 µM [activator, partial curve, poor fit] | – |

| SMILES | Potency | activity change, negative = inhibition |
| --- | --- | --- |
| CCOC(=O)c1cc(CC)sc1/N=C/C1=C(O)CCCC1=O | – | inactive: -1.54% |
| CCOC(=O)CC1C(=O)NCCN1C(=O)c1ccc(Cl)c(Cl)c1 (centres undefined) | – | inactive: 6.48% |
| COc1ccc(C(=O)c2sc(Nc3ccc(NC(C)=O)cc3)nc2C)cc1 | inconclusive: 14.6 µM [inhibitor, partial curve, poor fit] | – |
| COc1cc(/C=C2\SC(=O)NC2=O)ccc1OCC(=O)N1CCOCC1 | inconclusive: 14.6 µM [activator, partial curve, poor fit] | – |
| COc1ccc(-c2cc(C(=O)NNC(=O)c3csc(N4CCOCC4)n3)c3ccccc3n2)cc1OC | inconclusive: 8.2 µM [inhibitor, single point] | – |
| COc1cc(CN2CC(=O)N(c3ccc(C)cc3)C2=S)cc(OC)c1OC | inconclusive: 20.6 µM [inhibitor, single point] | – |
| Cc1nnc(SC(C)C(=O)Nc2ccc(S(=O)(=O)N3CCCCC3)cc2)s1 (centres undefined) | inconclusive: 18.4 µM [inhibitor, single point] | – |
| COc1cccc(Cn2cccc(NC(=O)Nc3cccc(C#N)c3)c2=O)c1 | inconclusive: 4.11 µM [inhibitor, single point] | – |
| CSc1cccc(NC(=O)/C=C/c2ccco2)c1 | inconclusive: 20.6 µM [activator, partial curve] | – |
| COc1ccc(OC)c(-c2cc(C(=O)Nc3cc(C)on3)no2)c1 | – | inactive: -1.04% |
| O=C(NCCCCCCNC(=O)N1CCCCCC1)N1CCCCCC1 | – | inactive: 5.57% |
| Cc1ccc(NC(=S)NC(=O)C2CCCC2)c(Br)c1 | inconclusive: 1.83 µM [activator, partial curve] | – |
| Cc1ccc(S(=O)(=O)N2CCN(C(=O)/C=C/c3ccco3)CC2)cc1 | – | inactive: 0.647% |
| COc1cccc(CN2CCN(Cc3nc(-c4cccs4)oc3C)CC2CCO)c1 (centres undefined) | – | inactive: -8.84% |
| Cc1cc(C)n(-c2nc(C(F)(F)F)nc3ccccc23)n1 | – | inactive: -2.14% |
| CCOC(=O)Cn1c(-c2nonc2NC(=O)c2ccccc2F)nc2ccccc21 | inconclusive: 2.91 µM [activator, partial curve, poor fit] | – |
| O=C(NNc1nc2cc3c(cc2s1)OCO3)c1ccc(F)cc1 | inconclusive: 23.1 µM [activator, single point] | – |
| Oc1c(Br)cc(C=Nc2ccc3nc(-c4ccccc4)[nH]c3c2)c(O)c1Br | inconclusive: 29.1 µM [activator, partial curve, poor fit] | – |
| Cc1ccc2c(N)c(C(=O)N(c3ccccc3)c3ccccc3)sc2n1 | inconclusive: 18.4 µM [inhibitor, single point] | – |
| C=C(C)C(=O)O[C@H]1C/C(C)=C\C(=O)/C=C(\C)[C@H](O)[C@@H]2OC(=O)C(=C)[C@@H]21 | inconclusive: 29.1 µM [inhibitor, single point] | – |
| COc1cc2cc(CN(CCO)C(=O)c3cccs3)c(=O)[nH]c2cc1OC | inconclusive: 16.4 µM [activator, partial curve, poor fit] | – |
| COc1ccc(-c2cc(-c3ccc(O)cc3)nc(N)c2C#N)cc1 | – | inactive: 7.78% |
| CC(C)(C)c1ccc(COC(=O)Nc2ccc(F)cc2)cc1 | inconclusive: 20.6 µM [activator, partial curve] | – |

Three compounds from above, sorted by count of non-hydrogen atoms, low to high.

| SMILES | Potency | activity change, negative = inhibition |
| --- | --- | --- |
| CCOC(=O)c1cc(CC)sc1/N=C/C1=C(O)CCCC1=O | – | inactive: -1.54% |
| O=C(NNc1nc2cc3c(cc2s1)OCO3)c1ccc(F)cc1 | inconclusive: 23.1 µM [activator, single point] | – |
| CCOC(=O)Cn1c(-c2nonc2NC(=O)c2ccccc2F)nc2ccccc21 | inconclusive: 2.91 µM [activator, partial curve, poor fit] | – |
